The values that follow come from publication PMC9944984.

Amino acid sequences for entries named in this document (tags omitted). A change or cut given only in a name is not applied to a line headed by its entry. Chains listed by the source or under a name are the forms on record and can include a tag or linker. Residues count along the entry.
UniProt Q99816, residues 2-145: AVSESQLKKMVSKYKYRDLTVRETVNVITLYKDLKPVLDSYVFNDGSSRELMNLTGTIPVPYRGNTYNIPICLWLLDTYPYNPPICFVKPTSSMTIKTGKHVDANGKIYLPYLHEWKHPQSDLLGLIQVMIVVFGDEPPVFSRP
hNedd4-1 HECT N-lobe (520-780), null cysteine with S720C, tagged with lanthanide DOTA-M8-SPy at C720 (P46934-4, form named): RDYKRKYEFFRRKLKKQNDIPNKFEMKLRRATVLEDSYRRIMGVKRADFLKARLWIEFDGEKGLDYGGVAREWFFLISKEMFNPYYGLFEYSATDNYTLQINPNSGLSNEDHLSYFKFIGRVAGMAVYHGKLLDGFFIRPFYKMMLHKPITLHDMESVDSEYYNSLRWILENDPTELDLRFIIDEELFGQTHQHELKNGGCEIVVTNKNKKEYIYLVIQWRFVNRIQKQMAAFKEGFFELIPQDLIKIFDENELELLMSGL
hNedd4-1 HECT domain (520-900), single cysteine C867, tagged with lanthanide DOTA-M8-SPy at C867 (P46934-4, form named): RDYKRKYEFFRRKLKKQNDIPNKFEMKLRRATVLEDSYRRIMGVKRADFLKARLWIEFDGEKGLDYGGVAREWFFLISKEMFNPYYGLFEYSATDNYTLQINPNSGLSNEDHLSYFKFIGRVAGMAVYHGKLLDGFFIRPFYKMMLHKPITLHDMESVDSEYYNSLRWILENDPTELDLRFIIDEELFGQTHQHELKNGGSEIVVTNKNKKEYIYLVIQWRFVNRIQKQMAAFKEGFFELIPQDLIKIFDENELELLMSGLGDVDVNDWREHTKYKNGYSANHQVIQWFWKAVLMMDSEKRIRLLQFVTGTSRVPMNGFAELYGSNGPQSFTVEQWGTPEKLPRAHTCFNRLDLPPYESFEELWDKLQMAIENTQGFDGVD
hNedd4-1 HECT N-lobe (520-780), null cysteine with F528C, tagged with lanthanide DOTA-M8-SPy at C528 (P46934-4, form named): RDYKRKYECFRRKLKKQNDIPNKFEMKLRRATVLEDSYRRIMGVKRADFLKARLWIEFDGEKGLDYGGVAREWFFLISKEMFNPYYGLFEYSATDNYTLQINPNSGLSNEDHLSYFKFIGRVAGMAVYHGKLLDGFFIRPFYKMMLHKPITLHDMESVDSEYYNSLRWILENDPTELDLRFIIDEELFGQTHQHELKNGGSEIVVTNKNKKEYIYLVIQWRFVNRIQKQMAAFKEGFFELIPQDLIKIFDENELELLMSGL

These are yes or no findings as the source states them, for the method shown. Some binding calls cover weakened binding; strength is not graded here.

The test concerns the target Tsg101 UEV domain (residues 2-145), wild type, 15N-labeled (UniProt Q99816). The experiment in a line: NMR intermolecular paramagnetic relaxation enhancement (PRE); Gd-DOTA-M8-SPy-tagged HECT (Lu-tagged as diamagnetic reference), 150 uM, mixed with 125 uM 15N-Tsg101 UEV; amide proton R2 difference; 50 mM Tris pH 7.4, 500 mM NaCl, 5% glycerol, 7% 2H2O; 300 K, 600 MHz; both purified.

In the case of “hNedd4-1 HECT N-lobe (520-780), null cysteine with S720C, tagged with lanthanide DOTA-M8-SPy at C720 (from UniProt P46934-4 520-780) (domain or fragment)”, the binding entry was “binds weakly”.

Turning to “hNedd4-1 HECT domain (520-900), single cysteine C867, tagged with lanthanide DOTA-M8-SPy at C867 (from UniProt P46934-4 520-900) (domain or fragment)”, the binding result was “binds weakly”.

Take “hNedd4-1 HECT N-lobe (520-780), null cysteine with F528C, tagged with lanthanide DOTA-M8-SPy at C528 (from UniProt P46934-4 520-780) (domain or fragment)”: the binding entry is on record as “binds weakly”.
